# Test results reported in the supplement of paper PMC8728848.
# This is one part of the list.
# Experiments:
# Assay in all cases: glycan array binding signal (z-score within array); higher = stronger binding
# Details in all cases: glycan notation: IUPAC condensed, linker removed
# [1] = target: Gal(b1-4)GlcNAc(b1-3)Gal(b1-4)GlcNAc(b1-6)[Gal(b1-3)]GalNAc
# Procedure, shortened: (§1)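 Arrays were curated from the Consortium for Functional Glycomics database, 3228 in total, and kept only where the protein sequence was available. Binding is expressed as a within-array Z-score. This score was averaged across arrays of the same protein sequence at different concentrations or buffers and across linkers, and negative values can be read as non-binding.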
# [2] = target: Gal(b1-4)GlcNAc(b1-3)Gal(b1-4)[Fuc(a1-3)]GlcNAc(b1-3)Gal(b1-4)[Fuc(a1-3)]GlcNAc
# Procedure, shortened: as §1
# [3] = target: Gal(b1-4)GlcNAc(b1-3)GalNAc
# Procedure, shortened: as §1
# [4] = target: Gal(b1-4)GlcNAc(b1-3)[Fuc(a1-3)GlcNAc(b1-6)]Gal(b1-4)Glc
# Procedure, shortened: as §1
# [5] = target: Gal(b1-4)GlcNAc(b1-3)[Gal(b1-4)GlcNAc(b1-6)]Gal(b1-4)GlcNAc
# Procedure, shortened: as §1
# [6] = target: Gal(b1-4)GlcNAc(b1-3)[GlcNAc(b1-6)]Gal(b1-4)GlcNAc
# Procedure, shortened: as §1
# [7] = target: Gal(b1-4)GlcNAc(b1-6)Gal(b1-4)GlcNAc
# Procedure, shortened: as §1
# [8] = target: Gal(b1-4)GlcNAc(b1-6)GalNAc
# Procedure, shortened: as §1
# [9] = target: Gal(b1-4)GlcNAc(b1-6)[Gal(b1-3)]GalNAc
# Procedure, shortened: as §1
# [10] = target: Gal(b1-4)GlcNAc(b1-6)[Gal(b1-4)GlcNAc(b1-3)]GalNAc
# Procedure, shortened: as §1
# Gal(b1-4)GlcNAc6P = target: Gal(b1-4)GlcNAc6P
# Procedure, shortened: as §1
# Gal(b1-6)Gal = target: Gal(b1-6)Gal
# Procedure, shortened: as §1
# Gal3S(b1-3)GalNAc = target: Gal3S(b1-3)GalNAc
# Procedure, shortened: as §1
# Gal3S(b1-3)GlcNAc = target: Gal3S(b1-3)GlcNAc
# Procedure, shortened: as §1
# [11] = target: Gal3S(b1-3)[Fuc(a1-4)]GlcNAc
# Procedure, shortened: as §1
# Gal3S(b1-4)Glc = target: Gal3S(b1-4)Glc
# Procedure, shortened: as §1
# Gal3S(b1-4)Glc6S = target: Gal3S(b1-4)Glc6S
# Procedure, shortened: as §1
# Gal3S(b1-4)GlcNAc = target: Gal3S(b1-4)GlcNAc
# Procedure, shortened: as §1
# [12] = target: Gal3S(b1-4)[Fuc(a1-3)]Glc6S
# Procedure, shortened: as §1
# [13] = target: Gal3S(b1-4)[Fuc(a1-3)]GlcNAc
# Procedure, shortened: as §1
# [14] = target: Gal3S(b1-4)[Fuc(a1-3)]GlcNAc6S
# Procedure, shortened: as §1
# Gal3S4S(b1-4)GlcNAc = target: Gal3S4S(b1-4)GlcNAc
# Procedure, shortened: as §1
# Gal3S6S(b1-4)GlcNAc = target: Gal3S6S(b1-4)GlcNAc
# Procedure, shortened: as §1
# Gal3S6S(b1-4)GlcNAc6S = target: Gal3S6S(b1-4)GlcNAc6S
# Procedure, shortened: as §1
# Gal4S(b1-4)GlcNAc = target: Gal4S(b1-4)GlcNAc
# Procedure, shortened: as §1
# Gal4S6S(b1-4)GlcNAc = target: Gal4S6S(b1-4)GlcNAc
# Procedure, shortened: as §1
# Gal6P(b1-4)GlcNAc = target: Gal6P(b1-4)GlcNAc
# Procedure, shortened: as §1
# Gal6S(b1-3)GlcNAc = target: Gal6S(b1-3)GlcNAc
# Procedure, shortened: as §1
# Gal6S(b1-3)GlcNAc6S = target: Gal6S(b1-3)GlcNAc6S
# Procedure, shortened: as §1
# Gal6S(b1-4)Glc = target: Gal6S(b1-4)Glc
# Procedure, shortened: as §1
# Gal6S(b1-4)Glc6S = target: Gal6S(b1-4)Glc6S
# Procedure, shortened: as §1
# Gal6S(b1-4)GlcNAc = target: Gal6S(b1-4)GlcNAc
# Procedure, shortened: as §1
# Gal6S(b1-4)GlcNAc6S = target: Gal6S(b1-4)GlcNAc6S
# Procedure, shortened: as §1
# GalNAc(a1-3)Gal = target: GalNAc(a1-3)Gal
# Procedure, shortened: as §1
# GalNAc(a1-3)GalNAc = target: GalNAc(a1-3)GalNAc
# Procedure, shortened: as §1
# [15] = target: GalNAc(a1-3)GalNAc(b1-3)Gal(a1-4)Gal(b1-4)Glc
# Procedure, shortened: as §1
# [16] = target: GalNAc(a1-3)GalNAc(b1-3)Gal(a1-4)Gal(b1-4)GlcNAc
# Procedure, shortened: as §1
binder,measurement,setting,value
SynCAM (Mus musculus) (protein) MASAVLPSGSQCAAAAAVAAAAAPPGLRLRLLLLLLSAAALIPTGDGQNLFTKDVTVIEGEVATISCQVNKSDDSVIQLLNPNRQTIYFRDFRPLKDSRFQLLNFSSSELKVSLTNVSISDEGRYFCQLYTDPPQESYTTITVLVPPRNLMIDIQKDTAVEGEEIEVNCTAMASKPATTIRWFKGNKELKGKSEVEEWSDMYTVTSQLMLKVHKEDDGVPVICQVEHPAVTGNLQTQRYLEVQYKPQVHIQMTYPLQGLTREGDAFELTCEAIGKPQPVMVTWVRVDDEMPQHAVLSGPNLFINNLNKTDNGTYRCEASNIVGKAHSDYMLYVYDPPTTIPPP,glycan array binding signal (z-score),[1],0.463
same,glycan array binding signal (z-score),[2],0.706
same,glycan array binding signal (z-score),[3],-0.791
same,glycan array binding signal (z-score),[4],0.097
same,glycan array binding signal (z-score),[5],0.392
same,glycan array binding signal (z-score),[6],-0.62
same,glycan array binding signal (z-score),[7],-0.149
same,glycan array binding signal (z-score),[8],0.115
same,glycan array binding signal (z-score),[9],-0.072
same,glycan array binding signal (z-score),[10],0.694
same,glycan array binding signal (z-score),Gal(b1-4)GlcNAc6P,-0.904
same,glycan array binding signal (z-score),Gal(b1-6)Gal,-1.06
same,glycan array binding signal (z-score),Gal3S(b1-3)GalNAc,-0.546
same,glycan array binding signal (z-score),Gal3S(b1-3)GlcNAc,-0.217
same,glycan array binding signal (z-score),[11],0.105
same,glycan array binding signal (z-score),Gal3S(b1-4)Glc,1.95
same,glycan array binding signal (z-score),Gal3S(b1-4)Glc6S,1.42
same,glycan array binding signal (z-score),Gal3S(b1-4)GlcNAc,0.193
same,glycan array binding signal (z-score),[12],3.97
same,glycan array binding signal (z-score),[13],0.274
same,glycan array binding signal (z-score),[14],1.22
same,glycan array binding signal (z-score),Gal3S4S(b1-4)GlcNAc,1.07
same,glycan array binding signal (z-score),Gal3S6S(b1-4)GlcNAc,2.56
same,glycan array binding signal (z-score),Gal3S6S(b1-4)GlcNAc6S,2.69
same,glycan array binding signal (z-score),Gal4S(b1-4)GlcNAc,0.837
same,glycan array binding signal (z-score),Gal4S6S(b1-4)GlcNAc,-0.455
same,glycan array binding signal (z-score),Gal6P(b1-4)GlcNAc,-0.555
same,glycan array binding signal (z-score),Gal6S(b1-3)GlcNAc,0.58
same,glycan array binding signal (z-score),Gal6S(b1-3)GlcNAc6S,-0.219
same,glycan array binding signal (z-score),Gal6S(b1-4)Glc,-0.141
same,glycan array binding signal (z-score),Gal6S(b1-4)Glc6S,1.69
same,glycan array binding signal (z-score),Gal6S(b1-4)GlcNAc,0.766
same,glycan array binding signal (z-score),Gal6S(b1-4)GlcNAc6S,0.137
same,glycan array binding signal (z-score),GalNAc(a1-3)Gal,-0.173
same,glycan array binding signal (z-score),GalNAc(a1-3)GalNAc,1.08
same,glycan array binding signal (z-score),[15],-0.146
same,glycan array binding signal (z-score),[16],-0.889

# Reprinted at random: two records from the list
binder,measurement,setting,value
SynCAM (Mus musculus) (protein) MASAVLPSGSQCAAAAAVAAAAAPPGLRLRLLLLLLSAAALIPTGDGQNLFTKDVTVIEGEVATISCQVNKSDDSVIQLLNPNRQTIYFRDFRPLKDSRFQLLNFSSSELKVSLTNVSISDEGRYFCQLYTDPPQESYTTITVLVPPRNLMIDIQKDTAVEGEEIEVNCTAMASKPATTIRWFKGNKELKGKSEVEEWSDMYTVTSQLMLKVHKEDDGVPVICQVEHPAVTGNLQTQRYLEVQYKPQVHIQMTYPLQGLTREGDAFELTCEAIGKPQPVMVTWVRVDDEMPQHAVLSGPNLFINNLNKTDNGTYRCEASNIVGKAHSDYMLYVYDPPTTIPPP,glycan array binding signal (z-score),Gal6S(b1-3)GlcNAc,0.58
same,glycan array binding signal (z-score),[15],-0.146
